The values below come from paper PMC6789782, “Safety Pharmacological Evaluation of the Coffee Component, Caffeoylquinic Acid, and Its Metabolites, Using Ex Vivo and In Vitro Profiling Assays” (Pharmaceuticals, 2019).

The test system of data set [1] is isolated perfused guinea pig heart. The experiment in a line: Langendorff perfused heart assay. The settings on record: laboratory background data of drugs; n = 3. As to the method:
After injection of heparin sodium (100 unit/body, AY Pharmaceuticals Co., Ltd.) into the jugular vein, the animals were exsanguinated. […] A stainless-steel cannula was inserted in the aorta, followed by attachment to the Langendorff apparatus (Physio-Tech Co., Ltd., Tokyo, Japan). The attached heart was perfused with KH solution at 37.0 ± 0.2 °C. Before use, the KH solution was aerated by a gas mixture (95%O2 + 5%CO2) for 30 min or longer. The perfusion pressure was maintained at 70 mmHg.
DMSO solutions at 1, 10, and 100 mM were diluted 1000-fold with the KH solution to make test solutions of 1, 10, and 100 μM, respectively. The test solutions were cumulatively applied at a flow rate of 20 mL/min for 10 min with each concentration.
An ECG signal was recorded using electrodes fixed on the ventricular apex (+), and a stainless-steel cannula was inserted in the aorta (−), and LVP was recorded from the balloon catheter placed in the left ventricle. The ECG signals were amplified with an amplifier (DAM50; World Precision Instruments, Inc.) and LVPs were monitored with a Pressure Monitor 4 (Living Systems Instrumentation). Both of the waveforms were recorded with computer software (1000 Hz; iox2 and ecgAUTO3; emka Technologies).
Before measurement, the in-balloon pressure was adjusted so that the diastolic blood pressure would be in the range of 0 to 10 mmHg. The cardiac parameters, such as HR, PR interval, QRS duration, QT interval, QTc interval (Fridericia’s formula: QTc = QT/RR^1/3), LVPSP, left-ventricular end diastolic pressure (LVEDP), and LV dP/dt max, were measured.
Data are expressed as mean (± SD). The measured % changes from the pre-application value were used for analyses. Williams test was carried out between the solvent-control and test compound. Student’s t-test was carried out between the solvent-control and positive-control. […] The data from the solvent control and drug groups were tested by F test for homogeneity of variance. F test was performed at the significance level of 5%. When the variances were homogeneous, Student’s t-test was subsequently performed. When the variances were nonhomogeneous, Welch t-test was selected.

For data set [2] the following is noted: cited from earlier work.

With `O=C(O)COCCN1CCN([C@H](c2ccccc2)c2ccc(Cl)cc2)CC1` [Levocetirizine], in data set [1], the “Lowest concentration indicating statistically significant % change to solvent control, HR” value was 30 µM; the “Lowest concentration indicating statistically significant % change to solvent control, LV dP/dtmax” value was found to be 100 µM; the “Lowest concentration indicating statistically significant % change to solvent control, LVPSP” value is 10 µM; the “Lowest concentration indicating statistically significant % change to solvent control, PR” value turned out to be 10 µM. In addition, in data set [1], the “Lowest concentration indicating statistically significant % change to solvent control, QRS” value worked out at 100 µM and the “Lowest concentration indicating statistically significant % change to solvent control, QT” value is listed as 30 µM. Besides, the “EfTPC (effective free therapeutic plasma concentration)” value in data set [2] was 1.286 [25] µM.
